Assay [1] addresses polypeptide encoded by the human PERP gene, endogenously expressed on human cancer cell lines (PC9 / PC-9, Colo 205) (human) (UniProt Q96FX8). As to the kind of experiment: flow cytometry on PC-9 cells. (In general: Flow cytometry measures light scatter and fluorescence of single cells or particles in a stream.)
Assay [2] concerns the target human PERP with C-terminal myc-His tag expressed on CHO/DG44 cells from plasmid pcPERPmH (human) (UniProt Q96FX8). Nature of the assay: flow cytometry on CHO/PERP (KC1359).
The target is the same in assay [3]. As to the kind of experiment: flow cytometry on CHO/PERP.

Results are given in words; binding and its absence hold for the method and conditions named. Some binding calls cover weakened binding; strength is not graded here.

B1: anti-PERP humanized antibody HV5-2LV4 (antibody, V domains shown)
VH: QVQLQESGPGLVKPSQTLSLTCTVSGFSITTEYAWNWIRQPPGKGLEWMGYIGYTGRTNYAPSLKSRITISRDTSKNQFSLQLSSVTAEDTATYYCTRMDYWGQGTLVTVSS
VL: DIQMTQSPSSLSASVGDRVTITCSASSSVSYMHWFQQKPGKAPKLWIYSTSNLASGVPSRFSGSGSGTDYTLTISSMQPEDFATYYCQQRSSYPPTFGQGTKVEIK
Consider B1, for which the binding entry in assay [1] and in assay [2] was “binds” in each case.

B2: anti-PERP humanized antibody HV4LV5-2 (antibody, V domains shown)
VH: QVQLQESGPGLVKPSQTLSLTCTVSGFSISTEYAWNWIRQFPGKGLEWIGYIGYTGRTNYAPSLKSRITISRDTSKNQFSLQLSSVTAEDTATYYCTRMDYWGQGTLVTVSS
VL: DIQMTQSPSSLSASVGDRVTITCSASSSVSYMHWYQQKPGKSPKLWIYSTSNLASGVPSRFSGSGSGTSYSLTISSLQPEDFATYYCQQRSSYPPTFGQGTKVEIK
With B2, the binding result in assay [1] and in assay [2] was “binds” throughout.

B3: anti-PERP humanized antibody HV4LV2 (antibody, V domains shown)
VH: QVQLQESGPGLVKPSQTLSLTCTVSGFSISTEYAWNWIRQFPGKGLEWIGYIGYTGRTNYAPSLKSRITISRDTSKNQFSLQLSSVTAEDTATYYCTRMDYWGQGTLVTVSS
VL: DIQMTQSPSSLSASVGDRVTITCSASSSVSYMHWYQQKPGKAPKLWIYSTSNLASGVPSRFSGSGSGTDYTLTISSLQPEDFATYYCQQRSSYPPTFGQGTKVEIK
For B3, the binding result in assay [2] is listed as “binds”.

B4: anti-PERP humanized antibody HV5-3LV4 (antibody, V domains shown)
VH: QVQLQESGPGLVKPSQTLSLTCTVSGFSISTEYAWNWIRQFPGKGLEWMGYIGYTGRTNYAPSLKSRITISRDTSKNQFSLQLSSVTAEDTATYYCTRMDYWGQGTLVTVSS
VL: DIQMTQSPSSLSASVGDRVTITCSASSSVSYMHWFQQKPGKAPKLWIYSTSNLASGVPSRFSGSGSGTDYTLTISSMQPEDFATYYCQQRSSYPPTFGQGTKVEIK
For the molecule B4, the binding result in assay [3], in assay [1] and in assay [2] was “binds” in each case.
